Assay results as given in publication PMC6868827.
These are yes or no findings as the source states them, for the method shown. In cells and extracts the contact can be indirect. Some binding calls cover weakened binding; strength is not graded here.

Sequences of proteins named here, by UniProt entry; tags and fusion partners are left off. A change or cut given only in a name is not applied to a line headed by its entry.
UniProt O75925: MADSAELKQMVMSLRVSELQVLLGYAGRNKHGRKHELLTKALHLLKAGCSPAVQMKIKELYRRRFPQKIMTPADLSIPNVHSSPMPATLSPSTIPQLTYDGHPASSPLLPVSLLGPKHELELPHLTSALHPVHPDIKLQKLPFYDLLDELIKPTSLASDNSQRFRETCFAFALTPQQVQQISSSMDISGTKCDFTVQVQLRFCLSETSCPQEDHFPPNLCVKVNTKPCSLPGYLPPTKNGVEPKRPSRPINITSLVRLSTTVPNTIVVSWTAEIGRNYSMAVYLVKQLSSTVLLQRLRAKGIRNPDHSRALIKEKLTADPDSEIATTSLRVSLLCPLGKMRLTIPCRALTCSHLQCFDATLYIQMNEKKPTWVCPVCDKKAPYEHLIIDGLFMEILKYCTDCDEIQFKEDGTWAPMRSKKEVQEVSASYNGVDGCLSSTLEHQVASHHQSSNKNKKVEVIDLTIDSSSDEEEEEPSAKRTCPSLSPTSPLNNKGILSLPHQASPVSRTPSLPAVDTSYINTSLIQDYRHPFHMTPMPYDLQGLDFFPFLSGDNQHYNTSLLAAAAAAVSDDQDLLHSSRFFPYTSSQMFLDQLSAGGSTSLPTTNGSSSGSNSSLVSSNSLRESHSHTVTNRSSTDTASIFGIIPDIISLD
UniProt Q00987: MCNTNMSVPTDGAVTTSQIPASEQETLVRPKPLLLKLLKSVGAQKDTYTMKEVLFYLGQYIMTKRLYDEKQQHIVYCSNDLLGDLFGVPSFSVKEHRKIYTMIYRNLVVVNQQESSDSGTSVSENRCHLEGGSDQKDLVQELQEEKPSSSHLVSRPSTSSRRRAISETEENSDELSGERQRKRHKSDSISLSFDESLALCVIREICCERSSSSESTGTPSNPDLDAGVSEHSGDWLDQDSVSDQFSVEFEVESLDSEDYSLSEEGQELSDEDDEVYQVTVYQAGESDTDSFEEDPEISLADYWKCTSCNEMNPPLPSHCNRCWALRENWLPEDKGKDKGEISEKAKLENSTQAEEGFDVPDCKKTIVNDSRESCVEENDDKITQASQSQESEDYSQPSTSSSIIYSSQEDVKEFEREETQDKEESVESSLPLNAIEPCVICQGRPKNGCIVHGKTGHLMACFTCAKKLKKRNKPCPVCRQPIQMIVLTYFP

Key:
Assay in all cases: co-IP; DU145 cells co-transfected for 48 h (myc-PIAS1 or myc-PIAS1 K117L, with or without SUMO3 and AR), cross-linked with 1-2 mM dithio-bis succinimidyl propionate for 30 min, lysed in 50 mM Tris-HCl pH 7.4/150 mM NaCl/1% NP-40/1 mM EDTA; immunoprecipitation with anti-myc antibody at 4 °C for 3 h
[1] = molecular target: PIAS1 K117L (myc-PIAS1 (K117 L)) (human) (UniProt O75925)
[2] = molecular target: SUMO3-modified PIAS1 (myc-PIAS1 conjugated with SUMO3 at K117, ~120 kDa) (UniProt O75925)
[3] = molecular target: PIAS1 (myc-PIAS1, unmodified, ~71 kDa) (human) (UniProt O75925)

binding [1]: no binding
binding [2]: binds
binding [3]: no binding
Substance: MDM2 (double minute 2 protein, ubiquitin E3 ligase) (from UniProt Q00987 1-491)
